From US20240209341A1 (University of California, published 2024)
No constants are given. Whether binding was seen depends on the method and setting. For part of these data: In cells and extracts the contact can be indirect. Some results given as binding are weak or reduced against the parent protein; the word gives no strength. Where a sequence is shown, tags or fusion partners need not be part of it.

Protein sequences, listed by entry. Tags and fused reporters are not part of them. Residues count along the entry.
UniProt O00206, residues 24-631: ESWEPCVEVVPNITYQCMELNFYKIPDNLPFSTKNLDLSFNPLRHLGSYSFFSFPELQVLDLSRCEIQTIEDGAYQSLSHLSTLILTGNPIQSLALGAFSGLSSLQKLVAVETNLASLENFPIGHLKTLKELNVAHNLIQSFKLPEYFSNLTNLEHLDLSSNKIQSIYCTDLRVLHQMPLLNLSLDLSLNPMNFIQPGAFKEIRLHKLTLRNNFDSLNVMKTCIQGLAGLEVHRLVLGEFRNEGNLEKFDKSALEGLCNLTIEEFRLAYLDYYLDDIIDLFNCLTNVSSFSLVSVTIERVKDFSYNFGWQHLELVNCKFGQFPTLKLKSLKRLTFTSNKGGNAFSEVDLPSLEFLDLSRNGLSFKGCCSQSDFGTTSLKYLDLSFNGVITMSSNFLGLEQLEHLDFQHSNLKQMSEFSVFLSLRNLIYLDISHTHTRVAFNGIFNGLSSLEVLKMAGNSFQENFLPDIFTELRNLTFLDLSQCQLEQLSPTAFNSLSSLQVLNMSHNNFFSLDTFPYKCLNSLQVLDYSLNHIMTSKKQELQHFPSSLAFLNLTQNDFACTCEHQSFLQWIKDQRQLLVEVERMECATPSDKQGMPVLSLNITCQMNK
UniProt P02647, residues 25-267: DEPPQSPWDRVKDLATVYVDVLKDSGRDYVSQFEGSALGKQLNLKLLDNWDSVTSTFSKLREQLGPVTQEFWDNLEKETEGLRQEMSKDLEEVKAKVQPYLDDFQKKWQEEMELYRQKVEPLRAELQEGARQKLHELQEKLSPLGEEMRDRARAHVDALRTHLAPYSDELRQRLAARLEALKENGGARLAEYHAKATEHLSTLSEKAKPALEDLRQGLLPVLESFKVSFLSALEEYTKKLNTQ

Legend:
[1] = target: recombinant TLR4 ectodomain, His-tagged (Sino Biological) (human) (UniProt O00206); test: pull-down with BE-1 antibody; ELISA on eTLR4-coated plates
[2] = target: T1, human APOA1 (human, UniProt P02647 25-267); test: ELISA, AIBP-coated plates incubated with 5 µg/ml human APOA1
T1 construct: also called ApoA-I
Description: ELISA binding assays. To assess AIBP-TLR4 binding, 96-well plates were coated with 5 μg/ml of eTLR4, washed three times with PBS containing 0.05% Tween-20, blocked with PBS containing 1% BSA, and incubated with wtAIBP or mutAIBP, followed by 2 μg/ml of a biotinylated BE-1 anti-AIBP monoclonal antibody. To assess AIBP-APOA1 binding, plates were coated with BSA, wtAIBP or mutAIBP, washed, blocked, and incubated with 5 μg/ml of human APOA1 (a gift from Dmitri Sviridov, Baker Heart and Diabetes Institute, Melbourne, Australia), followed by a biotinylated anti-APOA1 antibody (Academy Bio-Medical Company, RRID:AB_1238781). In both assays, neutravidin-AP was added and incubated for 45 minutes at room temperature, followed by LumiPhos 530 (Lumigen) for 90 min, and luminescence was measured using a luminescence plate reader (BioTek, Winooski, Vermont).
FIG. 9: Identifies sequence motifs that contribute to AIBP binding to TLR4: FIG. 9. Identification of the domain in the AIBP molecule responsible for TLR4 binding. A, Human AIBP: signal peptide (aa 1-24), previously uncharacterized N-terminal domain (aa 25-51), and YjeF_N domain (aa 52-288). […] IP of eTLR4 and wtAIBP or mutAIBP in a test tube with an anti-AIBP antibody; blot and quantification from 3 independent experiments (D). […]

[3] = target: recombinant TLR4 ectodomain, His-tagged (Sino Biological) (human) (UniProt O00206); test: test-tube co-IP with anti-TLR4 antibody, immunoblot with anti-His antibody

Measured: binding

B1: His-tagged wild type (wt, 25-288 aa) human AIBP (protein)
chain: MSPIDPMGHHHHHHGRRRASVAAGILVPRGSPGLDGICSRQTIACRSGPTWWGPQRLNSGGRWDSEVMASTVVKYLSQEEAQAVDQELFNEYQFSVDQLMELAGLSCATAIAKAYPPTSMSRSPPTVLVICGPGNNGGDGLVCARHLKLFGYEPTIYYPKRPNKPLFTALVTQCQKMDIPFLGEMPAEPMTIDELYELVVDAIFGFSFKGDVREPFHSILSVLKGLTVPIASIDIPSGWDVEKGNAGGIQPDLLISLTAPKKSATQFTGRYHYLGGRFVPPALEKKYQLNLPPYPDTECVYRLQ
binds: all assays above
